Source: PMC10747088

Sequences of proteins named here, by UniProt entry; tags and fusion partners are left off.
UniProt P09874, whole entry: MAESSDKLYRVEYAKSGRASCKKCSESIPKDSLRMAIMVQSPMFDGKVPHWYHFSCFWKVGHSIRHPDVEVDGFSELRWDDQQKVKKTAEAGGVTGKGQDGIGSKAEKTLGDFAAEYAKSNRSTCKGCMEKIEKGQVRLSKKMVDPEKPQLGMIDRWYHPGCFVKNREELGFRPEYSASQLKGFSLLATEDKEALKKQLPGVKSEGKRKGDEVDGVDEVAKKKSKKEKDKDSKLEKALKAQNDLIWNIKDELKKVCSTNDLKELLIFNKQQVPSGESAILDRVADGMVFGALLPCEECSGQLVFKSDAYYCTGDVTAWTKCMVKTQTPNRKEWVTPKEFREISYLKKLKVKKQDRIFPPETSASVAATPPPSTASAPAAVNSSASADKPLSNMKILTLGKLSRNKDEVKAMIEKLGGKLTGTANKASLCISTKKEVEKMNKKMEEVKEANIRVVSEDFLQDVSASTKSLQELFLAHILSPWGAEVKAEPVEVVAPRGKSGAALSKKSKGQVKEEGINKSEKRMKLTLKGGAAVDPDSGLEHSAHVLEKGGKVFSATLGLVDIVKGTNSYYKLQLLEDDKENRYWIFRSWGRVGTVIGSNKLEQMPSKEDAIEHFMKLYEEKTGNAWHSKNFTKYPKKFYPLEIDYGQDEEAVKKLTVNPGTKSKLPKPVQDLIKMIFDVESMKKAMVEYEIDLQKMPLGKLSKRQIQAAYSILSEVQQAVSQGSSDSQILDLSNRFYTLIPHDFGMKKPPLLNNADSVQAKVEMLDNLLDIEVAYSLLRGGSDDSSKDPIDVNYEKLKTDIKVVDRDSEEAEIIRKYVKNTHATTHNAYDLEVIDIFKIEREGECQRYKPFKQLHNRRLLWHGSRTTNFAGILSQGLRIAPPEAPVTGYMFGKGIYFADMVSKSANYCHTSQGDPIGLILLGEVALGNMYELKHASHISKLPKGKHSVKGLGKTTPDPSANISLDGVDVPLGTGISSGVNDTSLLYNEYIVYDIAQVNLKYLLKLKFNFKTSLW

What was measured:
Assay in all cases: EMSA
[1] = system: Ku antigen; conditions: 30 or 60 nM Ku, 15 uM HSA does not reduce binding, HSA EMSA: TA/TAM buffer, 1 h, native 8% PAAG at 37 C, Ku/PARP1 EMSA: 50 mM Tris-HCl pH 8.0, 20 mM NaCl, 0.25 mM EDTA, 5% glycerol, 0.025% NP-40, 37 C 10-20 min, label: 32P, letters put together from the …
[2] = target: human serum albumin (HSA) (Homo sapiens) (UniProt P02768); conditions: HSA EMSA: TA/TAM buffer, 1 h, native 8% PAAG at 37 C, Ku/PARP1 EMSA: 50 mM Tris-HCl pH 8.0, 20 mM NaCl, 0.25 mM EDTA, 5% glycerol, 0.025% NP-40, 37 C 10-20 min, commercial protein, letters put together from the description
[3] = target: PARP1 (UniProt P09874); conditions: 60 nM PARP1: practically no free DNA, HSA does not lower binding; triazinyl phosphoramidate with two dodecyl groups at T29*T30 of strand 1; HSA EMSA: TA/TAM buffer, 1 h, native 8% PAAG at 37 C; Ku/PARP1 EMSA: 50 mM Tris-HCl pH 8.0, 20 mM NaCl, 0.25 mM EDTA, 5% glycerol, 0.025% NP-40, 37 C 10-20 min; label: 32P; letters put together from the …

Q: Does “TCCTGACATACTTGATACTTAGACATTCTT (double strand) [non-modified 30-mer DNA duplex]” bind [1]?
A: binds

Q: Does “TCCTGACATACTTGATACTTAGACATTCTT (double strand) [non-modified 30-mer DNA duplex]” bind ([2]; 15 uM HSA, label: 32P)?
A: no binding

Q: Does “TCCTGACATACTTGATACTTAGACATTCTT (double strand) [TZD30/M30-FAM]” bind ([2]; 10 uM oligomer, complete binding at 1:1, triazinyl phosphoramidate with two dodecyl groups at T29*T30 of strand 1, label: FAM on M30 (3' by name))?
A: binds

Q: Does “TCCTGACATACTTGATACTTAGACATTCTT (double strand) [TZD-modified 30-mer DNA duplex]” bind ([1]; triazinyl phosphoramidate with two dodecyl groups at T29*T30 of strand 1)?
A: binds

Q: Does “TCCTGACATACTTGATACTTAGACATTCTT (double strand) [TZD-modified 30-mer DNA duplex]” bind ([2]; 15 uM HSA, smeared bands, triazinyl phosphoramidate with two dodecyl groups at T29*T30 of strand 1, label: 32P)?
A: binds

Q: Does “TCCTGACATACTTGATACTTAGACATTCTT (double strand) [TZD-modified 30-mer DNA duplex]” bind [3]?
A: binds

For at least one entry, the source does not settle the construct or the ends of the probe. For part of these data: Negatives hold for the conditions tested.
